Data: article PMC8266240 (Journal of Enzyme Inhibition and Medicinal Chemistry, 2021)

How the values were obtained:
Assay type in all cases: cell-based
[1] = test system: HeLa cells; assay: Cell growth inhibition / MTT cell viability assay, HeLa; conditions: Homo sapiens, 48 h, read-out: Cancer cells (IC50, μM) HeLa
[2] = test system: LO2; assay: MTT cell viability assay, LO2 normal cells; conditions: Homo sapiens, L02, 48 h, read-out: Normal cells (IC50, μM) LO2
[3] = test system: MDA-MB-231; assay: MTT cell viability assay, MDA-MB-231; conditions: Homo sapiens, MDA-MB-231, 48 h, read-out: Cancer cells (IC50, μM) MDA-MB-231
[4] = test system: MCF-7; assay: MTT cell viability assay, MCF-7; conditions: Homo sapiens, MCF7, 48 h, read-out: Cancer cells (IC50, μM) MCF-7
[5] = test system: HepG2; assay: MTT cell viability assay, HepG2; conditions: Homo sapiens, HepG2, 48 h, read-out: Cancer cells (IC50, μM) HepG2
[6] = test system: MCF-10A; assay: MTT cell viability assay, MCF-10A normal cells; conditions: Homo sapiens, 48 h, read-out: Normal cells (IC50, μM) MCF-10A

**Q.** For `Cc1ccc(NC(=O)c2ccc(CN3CCN(C)CC3)cc2)cc1Nc1nccc(-c2cccnc2)n1` [Imatinib, imatinib], which IC50 [1] is on record?
**A.** 37.3 ± 0.22 µM

**Q.** And the IC50 [2]?
**A.** 87.67 ± 0.31 µM

**Q.** What about the IC50 [3] of the same compound?
**A.** 28.19 ± 0.24 µM

**Q.** And the IC50 [4]?
**A.** 40.08 ± 0.35 µM

**Q.** And the IC50 [5]?
**A.** 28.08 ± 0.25 µM

**Q.** What about the IC50 [6] of the same compound?
**A.** 39.4 ± 0.42 µM
